Literature values, collected in patent US5686486A, “4-hydroxy-benzopyran-2-ones and 4-hydroxy-cycloalkyl[b]pyran-2-ones useful to treat retroviral infections” (priority 1995, dated 1997).
For at least one compound, name, drawing or mass did not settle the structure.

Tested on: HIV protease
Details: cited from earlier work

## O=c1oc(-c2ccccc2)cc(O)c1Sc1ccccc1 [3-(thiophenyl)-6-phenyl-4-hydroxy-pyrone]
  HIV protease inhibition: displayed HIV protease inhibition
